Experimental data: publication PMC10531384
Results are given in words; binding and its absence hold for the method and conditions named. In cells and extracts the contact can be indirect. Some binding calls cover weakened binding; strength is not graded here.

Amino acid sequences for entries named in this document (tags omitted).
UniProt P21333: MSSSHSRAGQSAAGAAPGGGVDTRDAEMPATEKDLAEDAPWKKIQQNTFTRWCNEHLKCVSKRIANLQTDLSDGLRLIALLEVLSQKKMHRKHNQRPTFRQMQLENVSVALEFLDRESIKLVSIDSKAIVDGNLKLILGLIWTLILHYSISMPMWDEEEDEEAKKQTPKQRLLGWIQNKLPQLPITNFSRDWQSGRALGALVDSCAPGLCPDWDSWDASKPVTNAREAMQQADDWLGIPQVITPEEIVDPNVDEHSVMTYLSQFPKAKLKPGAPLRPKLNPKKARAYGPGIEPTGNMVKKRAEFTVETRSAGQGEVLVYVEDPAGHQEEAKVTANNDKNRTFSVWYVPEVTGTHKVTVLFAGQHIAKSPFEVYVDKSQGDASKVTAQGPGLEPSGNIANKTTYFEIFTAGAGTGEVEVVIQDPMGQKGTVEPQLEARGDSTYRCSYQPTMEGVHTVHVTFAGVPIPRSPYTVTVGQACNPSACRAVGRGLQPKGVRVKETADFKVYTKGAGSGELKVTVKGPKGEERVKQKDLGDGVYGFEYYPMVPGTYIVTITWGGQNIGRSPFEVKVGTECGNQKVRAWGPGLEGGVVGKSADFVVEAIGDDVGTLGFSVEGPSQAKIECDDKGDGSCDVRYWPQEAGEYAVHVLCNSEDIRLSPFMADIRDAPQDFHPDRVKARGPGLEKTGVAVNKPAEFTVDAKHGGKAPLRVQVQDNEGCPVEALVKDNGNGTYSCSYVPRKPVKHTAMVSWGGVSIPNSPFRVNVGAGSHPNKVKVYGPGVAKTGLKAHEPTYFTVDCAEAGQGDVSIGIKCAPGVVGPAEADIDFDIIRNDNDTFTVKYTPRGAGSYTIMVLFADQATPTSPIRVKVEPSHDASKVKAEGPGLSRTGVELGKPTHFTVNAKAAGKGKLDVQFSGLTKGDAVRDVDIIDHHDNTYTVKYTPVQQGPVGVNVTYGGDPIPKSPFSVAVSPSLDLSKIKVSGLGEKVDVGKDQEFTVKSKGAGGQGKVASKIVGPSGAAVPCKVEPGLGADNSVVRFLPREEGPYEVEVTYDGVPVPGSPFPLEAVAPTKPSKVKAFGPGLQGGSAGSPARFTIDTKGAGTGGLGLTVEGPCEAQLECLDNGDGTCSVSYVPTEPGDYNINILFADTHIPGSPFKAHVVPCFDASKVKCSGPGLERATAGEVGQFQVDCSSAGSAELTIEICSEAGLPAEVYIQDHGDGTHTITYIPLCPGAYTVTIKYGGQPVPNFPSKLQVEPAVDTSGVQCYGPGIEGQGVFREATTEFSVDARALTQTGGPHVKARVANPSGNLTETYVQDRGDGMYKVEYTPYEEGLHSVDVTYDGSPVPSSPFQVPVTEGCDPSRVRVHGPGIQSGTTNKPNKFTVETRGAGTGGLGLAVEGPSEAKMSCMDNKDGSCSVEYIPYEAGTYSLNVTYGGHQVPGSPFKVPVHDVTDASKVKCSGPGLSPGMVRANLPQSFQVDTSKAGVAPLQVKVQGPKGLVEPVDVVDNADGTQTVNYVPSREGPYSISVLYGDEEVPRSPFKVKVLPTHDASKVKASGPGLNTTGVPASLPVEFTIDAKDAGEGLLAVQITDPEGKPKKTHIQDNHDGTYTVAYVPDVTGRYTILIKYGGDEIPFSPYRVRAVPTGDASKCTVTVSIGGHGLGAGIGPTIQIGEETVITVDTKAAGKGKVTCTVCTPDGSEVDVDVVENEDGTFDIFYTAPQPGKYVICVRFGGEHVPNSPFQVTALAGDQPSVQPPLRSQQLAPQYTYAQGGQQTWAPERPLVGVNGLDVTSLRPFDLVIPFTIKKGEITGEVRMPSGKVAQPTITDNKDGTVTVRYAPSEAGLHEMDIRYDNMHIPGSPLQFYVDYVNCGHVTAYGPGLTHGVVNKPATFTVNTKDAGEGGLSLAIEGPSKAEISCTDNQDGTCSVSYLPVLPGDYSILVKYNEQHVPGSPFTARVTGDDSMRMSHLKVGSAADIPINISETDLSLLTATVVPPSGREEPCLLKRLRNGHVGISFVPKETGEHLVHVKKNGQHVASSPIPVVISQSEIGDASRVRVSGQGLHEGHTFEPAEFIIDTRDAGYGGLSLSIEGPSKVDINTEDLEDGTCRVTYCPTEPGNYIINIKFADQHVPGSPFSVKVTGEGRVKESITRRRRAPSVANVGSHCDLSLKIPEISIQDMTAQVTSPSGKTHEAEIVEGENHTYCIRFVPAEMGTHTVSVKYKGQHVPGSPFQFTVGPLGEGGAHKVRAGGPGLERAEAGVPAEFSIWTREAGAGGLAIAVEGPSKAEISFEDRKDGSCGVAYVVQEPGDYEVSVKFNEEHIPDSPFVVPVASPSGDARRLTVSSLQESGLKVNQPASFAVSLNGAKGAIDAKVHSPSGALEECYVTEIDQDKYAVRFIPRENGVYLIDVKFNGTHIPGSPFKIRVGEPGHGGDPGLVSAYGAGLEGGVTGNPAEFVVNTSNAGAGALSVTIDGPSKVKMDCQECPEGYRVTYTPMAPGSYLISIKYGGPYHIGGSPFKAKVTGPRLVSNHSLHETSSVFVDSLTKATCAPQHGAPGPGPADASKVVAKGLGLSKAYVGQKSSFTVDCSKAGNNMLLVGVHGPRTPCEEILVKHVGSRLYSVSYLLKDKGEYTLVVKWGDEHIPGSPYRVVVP
UniProt Q8BTM8: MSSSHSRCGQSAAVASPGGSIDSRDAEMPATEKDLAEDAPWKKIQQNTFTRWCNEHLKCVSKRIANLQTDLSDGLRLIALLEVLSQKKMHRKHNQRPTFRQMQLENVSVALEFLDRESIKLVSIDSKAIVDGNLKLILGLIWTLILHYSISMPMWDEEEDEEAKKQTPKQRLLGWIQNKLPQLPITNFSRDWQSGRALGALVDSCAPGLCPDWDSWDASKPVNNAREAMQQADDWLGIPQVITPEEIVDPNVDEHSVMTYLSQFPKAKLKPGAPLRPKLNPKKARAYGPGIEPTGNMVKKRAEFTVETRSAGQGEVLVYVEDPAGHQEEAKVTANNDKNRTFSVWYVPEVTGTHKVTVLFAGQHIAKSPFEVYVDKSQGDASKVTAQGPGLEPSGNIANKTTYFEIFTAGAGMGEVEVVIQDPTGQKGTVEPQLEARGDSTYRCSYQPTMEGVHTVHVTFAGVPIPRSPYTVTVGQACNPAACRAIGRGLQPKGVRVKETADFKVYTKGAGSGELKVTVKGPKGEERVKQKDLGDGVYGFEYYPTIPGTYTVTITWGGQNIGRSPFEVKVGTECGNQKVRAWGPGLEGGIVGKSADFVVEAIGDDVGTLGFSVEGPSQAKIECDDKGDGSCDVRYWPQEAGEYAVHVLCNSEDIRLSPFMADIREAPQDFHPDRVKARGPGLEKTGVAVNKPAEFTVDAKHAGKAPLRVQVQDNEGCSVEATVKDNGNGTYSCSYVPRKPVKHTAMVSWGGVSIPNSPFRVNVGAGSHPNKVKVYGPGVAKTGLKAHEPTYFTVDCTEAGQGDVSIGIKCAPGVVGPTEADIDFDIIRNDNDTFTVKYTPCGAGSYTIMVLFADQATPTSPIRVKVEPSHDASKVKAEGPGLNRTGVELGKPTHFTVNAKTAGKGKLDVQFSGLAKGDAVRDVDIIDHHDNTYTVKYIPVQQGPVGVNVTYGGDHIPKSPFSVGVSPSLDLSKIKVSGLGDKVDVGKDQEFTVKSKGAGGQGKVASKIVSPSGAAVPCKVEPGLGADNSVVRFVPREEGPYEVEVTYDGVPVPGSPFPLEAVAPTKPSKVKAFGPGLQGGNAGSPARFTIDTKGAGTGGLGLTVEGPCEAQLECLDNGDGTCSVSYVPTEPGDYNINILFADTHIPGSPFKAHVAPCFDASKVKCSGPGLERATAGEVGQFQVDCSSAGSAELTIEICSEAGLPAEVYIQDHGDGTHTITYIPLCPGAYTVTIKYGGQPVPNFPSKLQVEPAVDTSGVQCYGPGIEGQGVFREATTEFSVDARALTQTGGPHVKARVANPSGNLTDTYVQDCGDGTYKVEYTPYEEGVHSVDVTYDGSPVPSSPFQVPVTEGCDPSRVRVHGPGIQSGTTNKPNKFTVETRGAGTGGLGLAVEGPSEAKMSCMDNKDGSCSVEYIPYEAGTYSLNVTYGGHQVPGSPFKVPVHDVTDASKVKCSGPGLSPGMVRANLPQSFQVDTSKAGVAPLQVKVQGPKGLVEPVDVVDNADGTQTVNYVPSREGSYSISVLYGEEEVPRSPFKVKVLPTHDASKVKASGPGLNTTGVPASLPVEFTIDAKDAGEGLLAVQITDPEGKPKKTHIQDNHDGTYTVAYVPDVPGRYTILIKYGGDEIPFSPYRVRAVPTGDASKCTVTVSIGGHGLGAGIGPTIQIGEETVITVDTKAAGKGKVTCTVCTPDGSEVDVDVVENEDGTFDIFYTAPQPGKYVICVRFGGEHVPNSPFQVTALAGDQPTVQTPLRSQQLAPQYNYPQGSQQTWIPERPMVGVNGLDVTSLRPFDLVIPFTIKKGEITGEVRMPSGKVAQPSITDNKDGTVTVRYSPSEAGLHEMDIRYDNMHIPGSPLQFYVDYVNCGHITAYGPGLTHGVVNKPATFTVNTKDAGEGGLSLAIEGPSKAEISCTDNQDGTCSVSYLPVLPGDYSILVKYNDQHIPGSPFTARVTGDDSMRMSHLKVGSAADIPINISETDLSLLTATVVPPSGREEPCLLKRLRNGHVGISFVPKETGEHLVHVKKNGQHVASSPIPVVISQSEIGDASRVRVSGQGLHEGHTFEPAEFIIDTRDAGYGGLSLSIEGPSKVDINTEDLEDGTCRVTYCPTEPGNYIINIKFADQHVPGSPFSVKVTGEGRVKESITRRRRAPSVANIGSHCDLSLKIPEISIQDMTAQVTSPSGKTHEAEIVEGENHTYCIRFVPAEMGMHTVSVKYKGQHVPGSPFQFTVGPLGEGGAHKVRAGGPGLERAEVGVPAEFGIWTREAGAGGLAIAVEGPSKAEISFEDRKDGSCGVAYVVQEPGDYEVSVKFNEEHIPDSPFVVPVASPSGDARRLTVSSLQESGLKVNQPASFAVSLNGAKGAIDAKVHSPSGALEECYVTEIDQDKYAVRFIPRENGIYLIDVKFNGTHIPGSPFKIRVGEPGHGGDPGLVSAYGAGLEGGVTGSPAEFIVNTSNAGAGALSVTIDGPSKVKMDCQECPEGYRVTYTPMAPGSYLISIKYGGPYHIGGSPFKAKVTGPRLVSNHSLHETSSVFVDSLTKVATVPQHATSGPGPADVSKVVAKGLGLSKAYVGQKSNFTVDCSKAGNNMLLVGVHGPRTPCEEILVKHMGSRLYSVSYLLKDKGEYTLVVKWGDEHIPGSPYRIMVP
UniProt P51681: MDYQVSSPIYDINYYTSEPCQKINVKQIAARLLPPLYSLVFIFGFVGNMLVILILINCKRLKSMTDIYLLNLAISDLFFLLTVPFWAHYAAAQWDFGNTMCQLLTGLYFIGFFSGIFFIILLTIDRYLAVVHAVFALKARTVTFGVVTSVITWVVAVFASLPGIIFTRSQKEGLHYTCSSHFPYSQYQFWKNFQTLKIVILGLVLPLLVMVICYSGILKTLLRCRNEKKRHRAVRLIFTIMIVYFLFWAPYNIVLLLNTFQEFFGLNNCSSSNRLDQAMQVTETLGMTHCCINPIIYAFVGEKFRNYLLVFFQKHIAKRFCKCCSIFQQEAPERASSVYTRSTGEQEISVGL
UniProt P51682: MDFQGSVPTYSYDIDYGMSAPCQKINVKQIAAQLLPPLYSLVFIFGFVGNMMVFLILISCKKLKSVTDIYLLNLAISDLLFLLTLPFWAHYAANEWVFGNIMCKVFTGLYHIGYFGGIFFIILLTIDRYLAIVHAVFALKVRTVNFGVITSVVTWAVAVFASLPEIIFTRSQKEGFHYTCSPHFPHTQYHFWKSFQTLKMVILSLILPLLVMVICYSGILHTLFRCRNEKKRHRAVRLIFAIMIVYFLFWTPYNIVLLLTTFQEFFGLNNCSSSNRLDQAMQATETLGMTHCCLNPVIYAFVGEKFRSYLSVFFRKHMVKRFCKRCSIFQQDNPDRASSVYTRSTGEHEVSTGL
UniProt P61073: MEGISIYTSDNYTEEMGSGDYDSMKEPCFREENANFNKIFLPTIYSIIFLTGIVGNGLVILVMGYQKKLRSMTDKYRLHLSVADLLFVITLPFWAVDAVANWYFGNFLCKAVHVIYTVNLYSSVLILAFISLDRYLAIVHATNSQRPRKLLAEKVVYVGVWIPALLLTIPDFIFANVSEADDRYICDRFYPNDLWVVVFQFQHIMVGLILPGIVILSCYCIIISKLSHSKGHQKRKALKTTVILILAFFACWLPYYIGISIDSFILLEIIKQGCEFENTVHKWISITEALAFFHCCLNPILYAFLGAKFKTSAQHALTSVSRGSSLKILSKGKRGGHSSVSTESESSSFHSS

Tests used:
[1] = biological target: filamin A, human brain (human (endogenous in postmortem frontal cortex)) (UniProt P21333); experiment: co-IP; synaptosomes from frontal cortical slices of 11 matched AD and control subjects, slices incubated with K-R or 1 nM simufilam; anti-FLNA (SC-7565) on protein A/G agarose, 16 h 4 °C; blots for CCR5, CD4 and CXCR4
[2] = biological target: filamin A, mouse brain (mouse (endogenous in brain)) (UniProt Q8BTM8); experiment: co-IP; synaptosomes from brains of wildtype and 3xTg AD mice (6 or 10 months) after 2 months of water or oral simufilam 22 mg/kg/d; anti-FLNA (SC-17749) on protein A/G agarose, 16 h 4 °C; blots for CCR5, CD4 and CXCR4
[3] = biological target: filamin A, human brain (human (endogenous in postmortem frontal cortex)) (UniProt P21333); experiment: co-IP; synaptosomes from frontal cortical slices of 3 non-demented control subjects, slices incubated with K-R, 100 nM Aβ42, 10 μg/mL LTA-SA or 1 μg/mL PGN-SA with or without 1 or 10 nM simufilam (37 °C, 30 min); anti-FLNA (SC-7565) on protein A/G agarose, 16 h 4 °C, 25 mM HEPES pH 7.5, 200 mM NaCl, 1 mM EDTA; blot for TLR2

| binding [1] | binding [2] | Substance | also measured |
| --- | --- | --- | --- |
| binds | – | C-C chemokine receptor type 5, human brain (from UniProt P51681 1-352) | – |
| – | binds | C-C chemokine receptor type 5, mouse brain (from UniProt P51682 1-354) | – |
| binds | – | C-X-C chemokine receptor type 4, human brain (from UniProt P61073 1-352) | – |
| – | binds | C-X-C chemokine receptor type 4, mouse brain (from UniProt P70658 1-359) | – |
| – | binds | T-cell co-receptor cluster of differentiation 4, mouse brain (from UniProt P06332 27-457) | – |
| – | – | Toll-like receptor 2, human brain (from UniProt O60603 21-784) | binding [3]: binds |
